# Results taken from PubChem BioAssay AID1688 (National Center for Advancing Translational Sciences (NCATS), 2009).
# The campaign covered roughly 220,000 compounds. About 2,400 (1.1%) were called active. The shares of active, inactive and inconclusive entries below differ from those in the screen. The call rests on the fitted dose curve; in most records, active means well fitted inhibition curve with a large enough effect; inconclusive means small, poorly fitted or top-dose-only effect, or effect the other way; inactive means no such curve, though single readings can be large or run the other way. Potencies of inconclusive entries are doubtful fits and often do not repeat.
# Experiment: qHTS Multiplex Assay to Identify Dual Action Probes in a Cell Model of Huntington: Aggregate Formation (GFP); further: nearly all actives have a fitted effect of over 60% in size
# Settings: PC12 HttQ103-GFP aggregates, Acumen cytometry, 40 h; activity change, negative = inhibition: at 46.1 µM (top of the series) unless noted
# Summary of the method: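 Quantitative HTS on tebufenozide-induced (100 nM) PC12 cells stably expressing polyQ103 Huntingtin exon 1–GFP. Reduction of bright GFP aggregates, detected by laser scanning cytometry after lysis, identified actives across the titration.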
# On the % scale 0 is the no-effect control and ±100 the full control effect; potency means the concentration at half of the fitted maximal effect.
Structure (SMILES),Potency,"activity change, negative = inhibition"
COc1cccc(OC)c1C(=O)NC(=S)Nc1cc(-c2nc3ccccc3[nH]2)ccc1Cl,inactive,–
NNC(=O)c1cc(-c2ccc(O)cc2)nc2ccc(Br)cc12,–,inactive: -0.904% [at 9.22 µM]
Cc1ccc(/C=C/C(=O)N2CCN(S(=O)(=O)c3c(C)c(C)cc(C)c3C)CC2)o1,"inconclusive: 20 µM [activator, single point]",–
O=C(OCC(=O)N1CCN(C(=O)c2ccco2)CC1)c1ccccc1O,inactive,–
CN(C)c1ccc(N=C/C=C2\N(C)c3ccccc3C2(C)C)cc1,inactive,–
C=CCn1c(CNc2ccccc2)nnc1SCC(=O)N/N=C/c1ccc(O)cc1O,"inconclusive: 25.1 µM [inhibitor, single point]",–
S=C(Nc1ccc(Cl)c(Cl)c1)NC1CCCCC1,"inconclusive: 35.5 µM [inhibitor, single point]",–
O=C(Nc1ccccc1)C1=C[C@H](c2ccc(C(F)(F)F)cc2)C[C@H](OCc2ccc(CO)cc2)O1,–,inactive: 1.29% [at 9.22 µM]
CCOc1ccc(NC(=O)C2Cc3ccccc3CN2S(=O)(=O)CC)cc1 (stereo not drawn),"inconclusive: 3.16 µM [activator, partial curve]",–
FC(F)(F)c1nnc(-c2ccccc2)nc1Sc1ccc(Cl)cc1,"inconclusive: 22.4 µM [inhibitor, single point]",–
COC(=O)C1C(c2ccccc2)C(C(=O)OCc2ccco2)C1c1ccccc1 (stereo not drawn),"inconclusive: 12.6 µM [activator, partial curve]",–
O=C(NCCn1cc(SCc2ccc(F)cc2)c2ccccc21)c1c(F)cccc1F,"inconclusive: 35.5 µM [inhibitor, single point]",–
COc1cc(NC(=O)c2cc(-c3cccnc3)nc3ccc(Br)cc23)cc(OC)c1,inactive,–
CC(=O)C1=C(O)C(=O)N(CCc2c[nH]c3ccccc23)C1c1ccccc1 (stereo not drawn),"inconclusive: 0.891 µM [activator, single point]",–
Cc1ccc(-c2nn3c(C)nnc3c3ccccc23)cc1S(=O)(=O)N1CCN(CCO)CC1,"inconclusive: 11.2 µM [activator, single point]",–
Cc1nc(NC(=O)CC(C)C)sc1-c1csc(Nc2ccc(Cl)cc2)n1,"inconclusive: 11.2 µM [inhibitor, partial curve]",–
COC(=O)c1ccc(COC(=O)c2ccc(SC)cc2OC)cc1,"inconclusive: 15.8 µM [inhibitor, single point]",–
CC(=O)C1=C(C)NC(SCC(=O)c2ccc(Cl)cc2Cl)=C(C#N)C1c1ccco1 (stereo not drawn),"inconclusive: 35.5 µM [inhibitor, single point]",–
Cc1onc(-c2c(F)cccc2Cl)c1C(=O)c1ccccc1O,–,inactive: 12.7% [at 9.22 µM]
CC1=NNC(=O)C1CC(=O)N/N=C(\C)c1cccs1 (stereo not drawn),"inconclusive: 1.26 µM [inhibitor, single point]",–
Oc1ccc(-c2csc(Nc3ncccn3)n2)cc1O,"inconclusive: 35.5 µM [inhibitor, single point]",–
Cc1oc(C(C)(C)C)cc1C(=O)NCc1ccc2c(c1)OCO2,–,inactive: 16.6% [at 9.22 µM]

# Complete entries, quoted from the list. Order of values: Potency	activity change, negative = inhibition
# COC(=O)C1C(c2ccccc2)C(C(=O)OCc2ccco2)C1c1ccccc1 (stereo not drawn) is listed as inconclusive: 12.6 µM [activator, partial curve]	–
# CC1=NNC(=O)C1CC(=O)N/N=C(\C)c1cccs1 (stereo not drawn) is listed as inconclusive: 1.26 µM [inhibitor, single point]	–

# Later entries.

Structure (SMILES),Potency,"activity change, negative = inhibition"
COC(=O)C1C2C=CC(C3CC23)C1C(=O)OCC(=O)c1ccc(OC)cc1 (stereo not drawn),"inconclusive: 35.5 µM [inhibitor, single point]",–
O=C(O)CC(NC(=O)c1sc2ccccc2c1Cl)c1ccc(OC2CCCC2)cc1 (stereo not drawn),"inconclusive: 2 µM [activator, partial curve]",–
Nc1nc2sc3c(c2cc1C(=O)N1CCOCC1)CCCC3,inactive,–
CC1=C(C(=O)Nc2ccc([N+](=O)[O-])cc2)C(c2cccc(C(F)(F)F)c2)NC(=S)N1c1ccccc1 (stereo not drawn),"inconclusive: 35.5 µM [inhibitor, single point]",–
C/C(N)=C(/C#N)C(=O)COC(=O)c1ccc(C)c(S(=O)(=O)N2CCCCC2)c1,"inconclusive: 3.55 µM [inhibitor, single point]",–
O=C(COc1ccc(Cl)cc1)Nc1ncc([N+](=O)[O-])s1,active: 12.6 µM,–
COc1nc(N2CCCCCC2)nc(N2CCCCCC2)n1,"inconclusive: 35.5 µM [inhibitor, single point]",–
COc1cc(CCCN2C(=O)C(=O)NC[C@@H]2Cc2ccc(O)cc2)cc(OC)c1OC,"inconclusive: 0.224 µM [activator, full curve, poor fit]",–
Cn1c(=O)oc2cc(S(=O)(=O)NCc3ccncc3)ccc21,active: 8.91 µM,–
CCSc1nc2ccccc2n1C(=O)/C=C\c1ccc(OC)c(OC)c1,"inconclusive: 35.5 µM [inhibitor, single point]",–
COc1ccccc1CNC(=O)CSc1nnc2c(Cl)cc(C(F)(F)F)cn12,"inconclusive: 12.6 µM [activator, single point]",–
O=c1[nH]n2c(=O)c3c([nH]c2c1N=Nc1cccc(Cl)c1)CCCC3,"inconclusive: 35.5 µM [inhibitor, single point]",–
CCCC(c1nnnn1Cc1ccc(F)cc1)N1CCN(CC)CC1 (stereo not drawn),"inconclusive: 2.82 µM [inhibitor, single point]",–
CN(C)/C=C1\SC(=S)N(N2C(=O)C3C4C=CC(C4)C3C2=O)C1=O (stereo not drawn),inactive,–
CCN(CC)S(=O)(=O)c1cc(C(=O)c2nccn2C)ccc1Cl,"inconclusive: 5.62 µM [activator, single point]",–
Oc1ccc(-c2nc3ccc4ccccc4c3c3c2CCC3)cc1O,"inconclusive: 7.94 µM [activator, partial curve]",–
O=C1C=CC(=O)N1c1ccc(Sc2ccc([N+](=O)[O-])cc2)cc1,–,inactive: 12.2% [at 9.22 µM]
Cc1cccc(C(=O)N2CCN(C(=O)c3cccc(C)c3)C(C)C2)c1 (stereo not drawn),"inconclusive: 1.58 µM [inhibitor, partial curve]",–
CC1CCCCN1c1ncnc2ccccc12 (stereo not drawn),active: 10 µM,–
CC(=O)Nc1ccc2c(CSc3nnc(-c4cccnc4)n3-c3ccc(C)cc3C)cc(=O)oc2c1,"inconclusive: 2.24 µM [activator, partial curve]",–
O=c1cc(N2CCCCC2)c(-c2ccccc2)nn1Cc1c(Cl)cccc1Cl,"inconclusive: 22.4 µM [inhibitor, single point]",–
